Patent US8148392B2, “2-indolyl imidazo [4,5-d] phenanthroline derivatives and their use in the treatment of cancer” (Lorus Therapeutics Inc., priority 2005, dated 2012)
Some results were stated once for a whole list of compounds, not compound by compound.

Test system: normal cell lines PrEC, HMEC, WI38 and cancer cell lines DU145, MDA-MB-435, HT-29
Assay: Cancer cell selectivity, IC90 in normal versus cancer cell lines (XTT)
Assay type: cell-based, human
Settings: average IC90 of all normal / average IC90 of all cancer cell lines, 6 to 7 days
Text: An exemplary method of assessing the differential sensitivity between normal and cancer cells for a compound has been described by Vassilev et al. (Anti-Cancer Drug Design (2001) 16:7). This method involves the comparison of IC90 values, i.e. the molar concentration of a test compound required to cause 90% growth inhibition of exponentially growing cells. Thus, the IC90 values for candidate compounds can be evaluated in various cancer cell lines (such as those outlined above) and normal cells (such as HUVEC and/or WI38 cells) and compared. IC90 values can be measured using a variety of standard techniques as known in the art. Cancer cell selectivity is calculated as a ratio between the average IC90 for all normal cell lines and the average IC90 for all cancer cell lines. […]
The normal cells lines used were PrEC (prostate), HMEC (breast), and WI38 (lung fibroblast) cell lines and the cancer cells lines were DU145 (prostate), MDA-MB-435 (breast), HT-29 (colon). IC90 values were also determined for the controls doxorubicin and etoposide. […] Various concentrations of the compounds were incubated with the cells for 6 to 7 days, and the number of proliferating cells was measured using the XTT assay. Cancer cell selectivity was calculated as a ratio between the average IC90 for all normal and the average IC90 for all cancer cell lines.

SMILES: c1ccc(-c2[nH]c3ccccc3c2-c2nc3c4cccnc4c4ncccc4c3[nH]2)cc1 [Compound 9]
- Normal/cancer IC90 ratio (listed as compound 9): > 4

SMILES: Cc1[nH]c2ccccc2c1-c1nc2c3cccnc3c3ncccc3c2[nH]1 [Compound 3]
- Normal/cancer IC90 ratio (listed as compound 3): > 4
